The text below walks through data of patent publication US11492327B2, “Aminooxylipids for the construction of self-assembling liposomal systems enabling their subsequent modification by biologically functional molecules” (VYSOKA SKOLA CHEMICKO-TECHNOLOGICKA V PRAZE, priority 2016, dated 2022).

The series is described as follows: HA binding onto liposomes presenting the aminooxy group vs. the amino group (gel chromatography, fluorimetry). Conditions: liposome fraction (2 ml); 1 mg total lipid to 0.1 mg FITC-HA; lipid incorporated in liposomes. The procedure: Methods: Liposomes presenting the aminooxy group were prepared by the procedure described in Example 15, containing 1% aminooxylipidid of general formula I (according to Example 14) at a starting concentration of 10 mg/ml PBS. The amino group-presenting liposomes were prepared by the same technique with the amino group-containing lipid DOPE. These liposomes at a starting concentration of 10 mg/ml PBS were mixed with fluorescently labelled HA (Sigma-Aldrich) at a concentration of 1 mg/ml PBS in a ratio of 1 mg total lipid to 0.1 mg HA. Incubation takes place for at least 30 minutes at room temperature (see Example 19). Both samples were incubated in 10 mM citric acid. Unbound HA was removed on a Superose 6 column (200 μl spraying buffer, flow rate of the first milliliter was 0.1 ml/min, then 0.3 ml/min, collection of 1 ml fractions). Fluorescence was measured using a Perkin Elmer fluorimeter at appropriate wavelengths (excitation for FITC-HA was 490 nm, emission 505 nm).

Regarding `CCCCCCCC/C=C\CCCCCCCC(=O)OC[C@H](COP(=O)(O)OCCN)OC(=O)CCCCCCC/C=C\CCCCCCCC` [DOPE, 1,2-dioleoyl-sn-glycero-3-phosphoethanolamine, reference compound], the “HA bound, % of the original HA amount” value turned out to be 27%.

`CCCCCCCCCCCCCCC(CCCCCCCCCCCCCC)C(=O)NCCNC(=O)CON.O=C(O)C(F)(F)F` [Example 12, N^1-(2-tetradecylhexadecanoyl)-N^2-amoniumoxyacetyl-1,2-diaminoethane-trifluoroacetate]: the “HA bound, % of the original HA amount” value was “almost identical”.

Turning to `CCCCCCCCCCCCCCC(CCCCCCCCCCCCCC)C(=O)NCCCNC(=O)CON.O=C(O)C(F)(F)F` [Example 13, N^1-(2-tetradecylhexadecanoyl)-N^3-amoniumoxyacetyl-1,3-diaminopropane-trifluoracetate], the “HA bound, % of the original HA amount” value is listed as “almost identical”.

`CCCCCCCCCCCCCCC(CCCCCCCCCCCCCC)C(=O)NCOC(CCOCC)NC(=O)CON.O=C(O)C(F)(F)F` (stereo not shown) [Example 14, N^1-(2-tetradecylhexadecanoyl)-N^3-amoniumoxyacetyl-1,3-diamino-2,6-dioxaoctane-trifluoracetate]: the “HA bound, % of the original HA amount” value amounted to 45%.
